Measured values published in PubChem BioAssay AID2685 (National Center for Advancing Translational Sciences (NCATS), 2010).
The campaign covered roughly 320,000 compounds. About 2,100 (0.66%) were called active. This list was built around the results that the source calls inconclusive (neither active nor inactive); the mix of calls is not that of the screen. Calls follow the shape of the dose curve; as a rule, active = well fitted inhibition curve with a large enough effect in the signal ratio, with a control signal flat (not every such curve was filed as active); inconclusive = small, poorly fitted or top-dose-only effect, or effect the other way, or a change in a side signal; inactive = flat fitted curve, though single readings scatter; the % refers to the signal ratio. Where the call is inconclusive, the potency comes from a doubtful curve fit.

Assay: qHTS Assay for Lipid Storage Modulators in Drosophila S3 Cells
Settings: BODIPY lipid droplet fluorescence, 18-24 h, cells fed with added oleic acid; lipid storage change, negative = inhibition: at 46.1 µM (top of the series) unless noted
Outline: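 Drosophila S3 cells loaded with oleic acid (400 uM, as added) and compounds at several concentrations; lipid droplets imaged by 488-nm laser-scanning cytometry, 500–530 nm intensity and object ratio to cell channel. Percent activity normalized to 20 uM Triacsin C.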
% is scaled to controls: 0 for no effect and ±100 for the full control effect; potency is read from the fitted curve at half-maximal effect.

Compound	lipid storage change, negative = inhibition	Potency
O=C(C1CCN(S(=O)(=O)c2ccc(Cl)cc2)CC1)N1CCCCCCC1	inconclusive: 3.65%	–
O=c1cc(CO)oc(C(Nc2cccc(C(F)(F)F)c2)c2ccccn2)c1O (stereo not drawn)	inconclusive: -2.46%	–
O=C(CSc1nc2ncc(Br)cc2[nH]1)Nc1ccccc1-c1ccccc1	–	inconclusive: 29.1 µM [falling, single point]
Cc1cc(C(=O)NNC(=O)CN2C(=O)NC3(CCCCC3)C2=O)c(C)o1	inconclusive: -7%	–
CCC(C)[C@H](NC(=O)CCn1nnc2ccccc2c1=O)C(=O)O (stereo partly drawn)	inconclusive: -12.9%	–
C/C(=N\NC(N)=O)c1ccc(-n2ccnc2)cc1	inconclusive: 16.5%	–
COc1cc(OC)c(C=O)c(OC(=O)N2CCOCC2)c1	inconclusive: 18.9%	–
COc1cccc(C2C(C(=O)c3cc4ccccc4o3)=C(O)C(=O)N2c2cc(C)on2)c1 (stereo not drawn)	inconclusive: 78.1%	–
COc1ccccc1N1CCN(C(=O)C2CCCN(c3ncnc4c3nc3n4CCCCC3)C2)CC1 (stereo not drawn)	–	inconclusive: 29.1 µM [activator, single point]
Cc1ccc(S(=O)(=O)NCCC(=O)Nc2nccs2)cc1	inconclusive: 46%	–
Cc1ccc(NC(=O)CCCC2CCCCC2)c(O)c1	inconclusive: -40.7%	–
CC(C)OCCCNc1ncnc2c1[nH]c1ccc(F)cc12	–	inconclusive: 20.6 µM [falling, partial curve]
COc1cc(/C=C2/SC(=O)N(CC(=O)N3CCCC3)C2=O)ccc1Oc1ccc([N+](=O)[O-])cn1	–	inconclusive: 5.8 µM [falling, single point]
CN(C)S(=O)(=O)c1ccc(N2CCCC2)c(C(=O)NC2(C)CCS(=O)(=O)C2)c1 (stereo not drawn)	inconclusive	–
Cc1c(C(=O)N2CCN(c3ccccn3)CC2)oc2c(F)cccc12	inconclusive: 17.9%	–
Cc1cc(F)ccc1NCc1ccncc1	inconclusive: 13.2%	–
COc1cc(SC)ccc1C(=O)Nc1cccc(S(=O)(=O)NC2=NCCC2)c1	inconclusive: -9.48%	–
Cc1ccc(NC(=O)CCC(=O)N/N=C/c2cccnc2)cc1	–	inconclusive: 29.1 µM [activator, single point]
Cc1cc(NC(=O)Cn2nc(-c3cccs3)ccc2=O)cc(C)c1Br	–	inconclusive: 0.92 µM [falling, full curve, poor fit]
COc1ccc(C(=O)NCCc2cnc[nH]2)cc1OC	inactive: 19.2%	–
O=C(NCCOCCOCCNC(=O)c1ccccc1)c1ccccc1	inconclusive: -0.76%	–
CCC(Oc1ccccc1)C(=O)NCCCN1CCOCC1 (stereo not drawn)	inconclusive: -35.4%	–
C/C(=N\Nc1ccc(C(=O)O)cc1)c1ccc(-n2ccnc2)cc1	inconclusive: 0.809%	–
CC(NC(=O)c1ccccc1)C(=O)OCC(=O)c1c(N)n(C)c(=O)n(C)c1=O (stereo not drawn)	inconclusive: 20.3%	–
CCOC(=O)c1ccc(NC(=S)NCCC2=CCCCC2)cc1	inconclusive: -63.1%	–
CCOC(=O)NC(NS(=O)(=O)c1ccccc1)(C(=O)OCC)C(F)(F)F (stereo not drawn)	inconclusive: -1.53%	–

Compound	lipid storage change, negative = inhibition	Potency
COc1ccc(Cc2nnc(SCC(=O)c3ccc(OC)cc3)o2)cc1	–	inconclusive: 4.11 µM [falling, single point]
CCCCN(c1ccccc1)S(=O)(=O)N(C)C	–	inconclusive: 0.517 µM [falling, partial curve, poor fit]
COc1cccc(C(=O)Nc2ccccc2NC(=O)c2cccc(OC)c2)c1	inconclusive: -29.1%	–
O=C(OCC(=O)N1CCCCCC1)c1cccc(Cl)c1	inconclusive: -52.9%	–
O=C(CSc1ccc([N+](=O)[O-])cn1)Nc1nccs1	–	active: 18.4 µM
CN(C)C(=O)C(Sc1ccc(S(=O)(=O)N2CCCC2)cn1)c1ccccc1 (stereo not drawn)	–	inconclusive: 11.6 µM [falling, partial curve]
Cn1c(=O)n(C)c2cc(NC(=O)CSc3ccccc3)ccc21	–	inconclusive: 32.6 µM [falling, single point]
COC(=O)c1cc(S(=O)(=O)N2CCCC2)c(Cl)cc1Cl	inconclusive: -25.2%	–
Cc1ccc(N2CC(C(=O)NC3CCSC3=O)CC2=O)cc1 (stereo not drawn)	inconclusive: -2.4%	–
CC1C=CCC2C(=O)N(c3cccc(C(=O)Nc4ccc(Br)cc4)c3)C(=O)C12 (stereo not drawn)	–	inconclusive: 6.51 µM [falling, single point]
Cc1ccc(NNC2CC(=O)N(c3cccc(Cl)c3)C2=O)cc1 (stereo not drawn)	inconclusive: 9.64%	–
COc1cc(CNCc2ccc(C)cc2)cc(OC)c1OC	inconclusive: 0.175%	–
CCCN1CCN(C(=O)C2CCN(S(=O)(=O)c3ccc4c(c3)oc(=O)n4C)CC2)CC1	inconclusive: 6.45%	–
OC(C#CCN1CCCCCC1)(c1ccccc1)c1cccnc1 (stereo not drawn)	inconclusive: 1.23%	–
CCCOc1ccc(N/C=C/C(=O)c2ccc(OC)c(OC)c2)cc1	–	inconclusive: 2.59 µM [activator, partial curve, poor fit]
Oc1ccc(-c2nc3ccccn3c2NCc2ccc3c(c2)OCO3)cc1	–	inconclusive: 7.31 µM [activator, partial curve, poor fit]
C(=N\n1cnnc1)/C1CCCCC1	inconclusive: -34.1%	–
O=C1CC(c2ccccc2F)c2c(c3ccccc3[nH]c2=O)O1 (stereo not drawn)	inconclusive: -11.8%	–
CNS(=O)(=O)c1ccc(NC(=O)c2csc(C)c2)cc1	inconclusive: -100%	–
COc1cc(NC(=S)NCCc2ccccc2)c(OC)cc1NC(=O)C(C)C	inconclusive: 6.59%	–
S=C(NC1CC2CCC1C2)N1CCN(c2cccc(Cl)c2)CC1 (stereo not drawn)	inconclusive: 1.92%	–
CCOc1ccc(N2C(=O)Nc3ccccc3C2(O)C(=O)NCc2ccc(F)cc2)cc1 (stereo not drawn)	inconclusive: -18.7%	–
Cc1ccc(OC(C)C(=O)Nc2cc(C)on2)cc1 (stereo not drawn)	inconclusive: 11.3%	–
COc1ccccc1N1CCN(C(=O)CCNC(=O)Cn2ccc3ccccc3c2=O)CC1	inconclusive: 136%	–
CCOC(=O)C1=C(CC)Nc2ccccc2N/C1=N\S(=O)(=O)c1ccccc1OC	inconclusive: 7%	–
CCC(C)(c1ccc(C(=O)OC)s1)c1ccc(C(=O)OC)s1	–	inconclusive: 29.1 µM [falling, single point]

Looked up above.
Under lipid storage change, negative = inhibition, COc1cccc(C(=O)Nc2ccccc2NC(=O)c2cccc(OC)c2)c1 is listed with inconclusive: -29.1%
Under lipid storage change, negative = inhibition, Cc1ccc(NNC2CC(=O)N(c3cccc(Cl)c3)C2=O)cc1 (stereo not drawn) is listed with inconclusive: 9.64%

Fetched one by one from the list above, three records:
Compound	lipid storage change, negative = inhibition	Potency
COc1cc(NC(=S)NCCc2ccccc2)c(OC)cc1NC(=O)C(C)C	inconclusive: 6.59%	–
CCCCN(c1ccccc1)S(=O)(=O)N(C)C	–	inconclusive: 0.517 µM [falling, partial curve, poor fit]
CCCN1CCN(C(=O)C2CCN(S(=O)(=O)c3ccc4c(c3)oc(=O)n4C)CC2)CC1	inconclusive: 6.45%	–

Remaining list, next part

Compound	lipid storage change, negative = inhibition	Potency
CSCC[C@H](NC(=O)c1ccc2ccccc2c1)C(=O)N1CCC2(CC1)NCCc1[nH]cnc12	inconclusive: -6%	–
CC1(CCc2ccccc2)NC(=O)N(CC(=O)Nc2ccc3c(c2)OCCO3)C1=O (stereo not drawn)	inconclusive: 7.52%	–
O=C(Nc1ccc(S(=O)(=O)N2CCCC2)cc1Cl)C1=COCCO1	inconclusive: 23.2%	–
O=C(N[C@H](Cc1cc(=O)[nH]c2ccccc12)C(=O)O)c1ccc(Cl)cc1	inconclusive: 6.56%	–
O=C(C1=C(O)C(=O)N(Cc2ccco2)C1c1cccnc1)c1cc2ccccc2o1 (stereo not drawn)	–	inconclusive: 1.3 µM [activator, full curve, poor fit]
O=C(Nc1ccccc1O)c1ccccc1O	inconclusive: -8.78%	–
N#CCCN(C(=O)COc1ccc(Br)cc1F)c1ccc(F)cc1	inconclusive: 35.5%	–
NC(=O)c1ccc(-c2nnn(CC(=O)Nc3cccc(S(=O)(=O)N4CCCC4)c3)n2)cc1	–	inconclusive: 0.92 µM [falling, partial curve, poor fit]
COc1cccc(C2(O)CCN(C(=O)c3cccs3)CC2)c1	–	inconclusive: 6.51 µM [activator, single point]
C[C@]1(CC/C(=C/CO)CO)[C@H](CO)CC[C@@]23COC(=O)C2=CCC[C@@H]31	inconclusive: 10.1%	–
Cc1c(C(=O)OCC(=O)N(C)c2ccccc2)cccc1[N+](=O)[O-]	–	inconclusive: 6.51 µM [activator, single point]
Cc1ccc2[nH]c(C(=O)Nc3ccc(F)cc3)cc2c1	inconclusive: -28.6%	–
CSc1cccc(NC(=O)C2CCCN(c3ncnc4c3nc3n4CCCCC3)C2)c1 (stereo not drawn)	inconclusive: 4.89%	–
O=C(c1ccc(CS(=O)c2ccccc2Cl)o1)N1CCOCC1 (stereo not drawn)	inconclusive: 137%	–
CC(=O)c1cccc(NS(=O)(=O)N(C)C)c1	–	inconclusive: 29.1 µM [cytotoxic, single point]
FC(F)(F)c1nnc2ccc(NCn3nnc4ccccc43)nn12	–	inconclusive: 0.326 µM [rising, full curve, poor fit]
O=C1c2ccccc2C(=O)N1CCc1c[nH]c2ccccc12	inconclusive: -0.0978%	–
O=C(CC1SC(=Nc2ccc(OC(F)F)cc2)N(CCN2CCOCC2)C1=O)Nc1ccccc1 (stereo not drawn)	inconclusive: 15.1%	–
COc1ccc(C)cc1NC(=O)c1[nH]c(C)c(C(C)=O)c1C	inconclusive: 33.8%	–
CCOc1ccc(N=Cc2ccc3ccccc3c2)cc1	inconclusive: 30.6%	–
CC1CN(C(=S)SCCN2C(=O)CCC2=O)CC(C)O1 (stereo not drawn)	inconclusive: 31%	–
COCc1cc(C)nc2sc(C(=O)Nc3ccc(C(=O)OC)cc3)c(N)c12	inconclusive: -84.5%	–
COC(=O)c1cn(CCOc2ccc(C)cc2)c2ccccc12	inconclusive: 17.3%	–
COc1ccc(/C=C(/C#N)C(=O)Nc2ccc(O)cc2)cc1C(=O)O	inconclusive: -25.5%	–
CCOC(=O)N1CCN(C(=O)c2ccc(CN(c3ccc(C)c(C)c3)S(C)(=O)=O)cc2)CC1	–	inconclusive: 7.31 µM [falling, partial curve]
CC(C)NC(=O)C1(S(=O)(=O)c2ccccc2)CC=CC1	–	inconclusive: 2.59 µM [activator, full curve, poor fit]
